# Laboratory results reported in article PMC5996148.
# Where “and” joins values, the source holds several entries; their conditions need not be identical. Identical values can stand only once. The list shows a part of the results.
# Columns and labels:
# Assay in all cases: protein microarray (ProtoArray v5.0), streptavidin-Alexa Fluor 647
# Details in all cases: 3'-biotin; 20 mM Tris (pH 7.5), 5 mM MgCl2, 100 mM KCl, 0.1% Tween-20, A/T-rich and random oligonucleotide blockers; temperature not stated; high values mean tight binding
# [1] = system: Dedicator of cytokinesis protein 8 (human)
# [2] = system: Dehydrogenase/reductase SDR family member 1 (human)
# [3] = system: Density-regulated protein (human)
# [4] = system: Deoxycytidine kinase (human)
# [5] = system: Differentially expressed in FDCP 6 homolog (human)
# [6] = system: Dihydroorotate dehydrogenase, mitochondrial (human)
# [7] = system: Docking protein 6 (human)
# [8] = system: Down syndrome critical region protein 8 (human)
# [9] = system: Dual specificity tyrosine-phosphorylation-regulated kinase 1A (human)
# E2F4 (human) = system: E2F4 (human)
sequence,measurement,setting,value
GGTGACAGGGGTATGGGGAGGGG [G4-2 biotinylated (Ct1)],binding signal,[1],-0.367 z-score
same,binding signal,[2],-0.391 z-score and -0.384 z-score
same,binding signal,[3],6.51 z-score
same,binding signal,[4],-0.377 z-score
same,binding signal,[5],-0.397 z-score
same,binding signal,[6],-0.368 z-score
same,binding signal,[7],-0.386 z-score
same,binding signal,[8],-0.386 z-score
same,binding signal,[9],3.83 z-score
same,binding signal,E2F4 (human),-0.384 z-score
